Measurements as given in PMC7819943, “Rice protein-binding microarrays: a tool to detect cis-acting elements near promoter regions in rice”.
The other results are listed elsewhere or left out.

By UniProt entry, the sequences of proteins in these tests, tags left out.
UniProt Q0JBA9, entry or part of it: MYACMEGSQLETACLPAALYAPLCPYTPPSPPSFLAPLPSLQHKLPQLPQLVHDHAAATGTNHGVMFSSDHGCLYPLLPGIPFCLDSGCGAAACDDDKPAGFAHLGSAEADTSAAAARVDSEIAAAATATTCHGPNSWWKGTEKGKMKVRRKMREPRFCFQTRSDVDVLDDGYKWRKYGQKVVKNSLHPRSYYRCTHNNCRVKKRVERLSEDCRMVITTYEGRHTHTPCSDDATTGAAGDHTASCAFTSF

Molecular target: OsWRKY34 (Oryza sativa, UniProt Q0JBA9 1-250)
Test: protein-binding microarray (RPBM); PBS, 2% BSA, 51.3 ng/ul salmon testes DNA, 50 uM zinc acetate, 200 nM TF, 25 C, 1 h; high values mean tight binding
Settings: protein: recombinant; tags: N-terminal polyhistidine and DsRed monomer fusion (pET32a); label: CyDye5-dUTP incorporated in the synthesized complementary strand; 3' TTTTT single-stranded linker to array surface; dsDNA, one strand shown
In short: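 The binding signal is fluorescence intensity per array feature (arbitrary units). Readings came from an Axon 4000B scanner after a washed, 2% BSA-blocked, double-stranded custom Agilent array had been incubated for 1 h at 25 °C with 200 nM protein and 50 µM zinc acetate. The protein was a Ni–NTA-purified transcription factor fused N-terminally to polyhistidine and DsRed, expressed in E. coli BL21-CodonPlus.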

First: TCAGGTCACAATATTTTCGCACATTTTGAACTTAACGTTTCGGAGTCACCTAGTGCAG
Second: TCATCTCATCCACTCCTCTCCTCGTACGCCTATAAAATCACGGAGTCACCTAGTGCAG
The binding signal of the first is higher: 10100 fluorescence intensity (a.u.) for the first, 8180 fluorescence intensity (a.u.) for the second.

First: ACCTACGTCGTGTCCCCAGTTTGCGCTTCTAGCTCCAATACGGAGTCACCTAGTGCAG
Second: ACCTCTTATTTGACTTTTTCACTATTTTGAAATACGAAAACGGAGTCACCTAGTGCAG
The binding signal of the first is lower: 8550 fluorescence intensity (a.u.) for the first, 9360 fluorescence intensity (a.u.) for the second.

Going from “CACTCGCATCACACACGCTCTCTCACTCTCACTCTCACTCCGGAGTCACCTAGTGCAG” to “AGATGTTTTGAGGTCGCCCTTGGGTTTATTTGGCGCCACACGGAGTCACCTAGTGCAG”, the binding signal falls from 8580 fluorescence intensity (a.u.) to 8060 fluorescence intensity (a.u.).

Compared with “AACAAACTTCCAACTTTTCCGTCACATCGTTTCAATTTCACGGAGTCACCTAGTGCAG”, “ACAATGTGACCCTATGTACAATTTACTCATATATTTTTATCGGAGTCACCTAGTGCAG” is higher in binding signal: 9480 fluorescence intensity (a.u.) for the first, 9570 fluorescence intensity (a.u.) for the second.

Compared with “AATCGCATCGCGCCGCTTTTGCTCCTCCGTCTCTCTCTCGCGGAGTCACCTAGTGCAG”, “CCACAACCTCTCTCACCACCCTGTCATCTGCACCACTGTCCGGAGTCACCTAGTGCAG” is lower in binding signal: 8420 fluorescence intensity (a.u.) for the first, 8230 fluorescence intensity (a.u.) for the second.

Going from “TTTCATATTAATCTATGTTGTCAATTTTTTTCATATTTTTCGGAGTCACCTAGTGCAG” to “ATTGAGACCACTTGTTCTGTGCCACTTCCATTTCATGTACCGGAGTCACCTAGTGCAG”, the binding signal falls from 9540 fluorescence intensity (a.u.) to 9240 fluorescence intensity (a.u.).

Compared with “TCCACATGTCTATCTTACATATTTTCTTGGTTCCTGTGCTCGGAGTCACCTAGTGCAG”, “GGTTTGTTTGACCCAACACTGTTTTTCCGGAATCCAGGTGCGGAGTCACCTAGTGCAG” is lower in binding signal: 10000 fluorescence intensity (a.u.) for the first, 8280 fluorescence intensity (a.u.) for the second.

Compared with “GGGGTCGGGGTGGGAGAGGGAGGCTACACTACAGCAGCAGCGGAGTCACCTAGTGCAG”, “TTCGTCCTTTAATTGCTTTCCTGTTGCCAGCTTGCTTTATCGGAGTCACCTAGTGCAG” is lower in binding signal: 11100 fluorescence intensity (a.u.) for the first, 9830 fluorescence intensity (a.u.) for the second.

First: ACTCAGCACGGCATCCGCCGCTCTACTCCTGGACCGACCGCGGAGTCACCTAGTGCAG
Second: AACTTAAATTTGTTATTCCCCGGCTCTTAGTCGGCACAAACGGAGTCACCTAGTGCAG
The binding signal of the first is higher: 8320 fluorescence intensity (a.u.) for the first, 8210 fluorescence intensity (a.u.) for the second.

First: CTTTTTTTTGTTTTTGACCTATTGTACATTCCGTTTCCAGCGGAGTCACCTAGTGCAG
Second: ATATACGTACTCCCTGTGTTCTATAATAAGTTTATTTTTACGGAGTCACCTAGTGCAG
The binding signal of the first is lower: 8310 fluorescence intensity (a.u.) for the first, 8810 fluorescence intensity (a.u.) for the second.

First: CACTACCGGATCCGTGGCCACTATGCGTGGGGAGGGCGGTCGGAGTCACCTAGTGCAG
Second: CAGTTAGACTTTTCCCTGACTTTTAGCATCAGTTCCTCGCCGGAGTCACCTAGTGCAG
The binding signal of the first is higher: 9030 fluorescence intensity (a.u.) for the first, 8560 fluorescence intensity (a.u.) for the second.

Compared with “TTCTGGTTCTTTATGTTAGGTGTGGTTGAGCCTTATATTTCGGAGTCACCTAGTGCAG”, “TAACCTTTTCTTTCTTGTTACTTGTTTTTTTTTTCTTCTTCGGAGTCACCTAGTGCAG” is higher in binding signal: 8600 fluorescence intensity (a.u.) for the first, 9700 fluorescence intensity (a.u.) for the second.

Compared with “GTCACGCACTGAAACTTGTCCCCTTTTACCCCATCTCTTTCGGAGTCACCTAGTGCAG”, “CTTCGCCATGGCCACCGGTGCCCGCCTCTCTCCTATCCCCCGGAGTCACCTAGTGCAG” is lower in binding signal: 9590 fluorescence intensity (a.u.) for the first, 9240 fluorescence intensity (a.u.) for the second.

Compared with “CTCTCCGTCGAGGAGCATTGTACGACTACCTGTGGCTCCGCGGAGTCACCTAGTGCAG”, “CAACCCCATCAAACTAATTGTTAGTATTTCTTTTAGTCCTCGGAGTCACCTAGTGCAG” is lower in binding signal: 8450 fluorescence intensity (a.u.) for the first, 8160 fluorescence intensity (a.u.) for the second.

Compared with “CGGTTCTTTTTTCATTAAGATGCAGATTTTATCTCGGTTTCGGAGTCACCTAGTGCAG”, “CCAAATCCACAGCTGAATCAAACGCACACCACACAGTCTACGGAGTCACCTAGTGCAG” is lower in binding signal: 9420 fluorescence intensity (a.u.) for the first, 8820 fluorescence intensity (a.u.) for the second.

First: ACTGCTCTTTCCCCTGCTCCAAGTATTTCTCTCTCGTTCTCGGAGTCACCTAGTGCAG
Second: TCCAGCCCAAACACATTCCAACACCGCAATTCTACATTATCGGAGTCACCTAGTGCAG
The binding signal of the first is higher: 11300 fluorescence intensity (a.u.) for the first, 9260 fluorescence intensity (a.u.) for the second.

Compared with “CGTTTGCACTCTGCTCCACTTGGTATTATCAGTTTTTGTTCGGAGTCACCTAGTGCAG”, “CTGCAGCTATCGATTTCACTCTCCATTCGACTTCAATCAACGGAGTCACCTAGTGCAG” is higher in binding signal: 9420 fluorescence intensity (a.u.) for the first, 10200 fluorescence intensity (a.u.) for the second.

First: GTGTGAACCAGAATATTTCGCCCTAATCATCAGTTTTCCACGGAGTCACCTAGTGCAG
Second: TTGCTCGTATTTTCTCCCCAAAGTCATCAACTTTGATGCTCGGAGTCACCTAGTGCAG
The binding signal of the first is lower: 9050 fluorescence intensity (a.u.) for the first, 19000 fluorescence intensity (a.u.) for the second.

First: AGGTATCGTGATGGTGGTAACAATGGTTCAAATTTTATAACGGAGTCACCTAGTGCAG
Second: GCTTGATGTCGTACTACGTAGATCCTCGTACCAACGTACCCGGAGTCACCTAGTGCAG
The binding signal of the first is lower: 8350 fluorescence intensity (a.u.) for the first, 8950 fluorescence intensity (a.u.) for the second.

First: CTTGCGAGTTGTTCGCCTCTTGTTCTGCTTCTACCTATCACGGAGTCACCTAGTGCAG
Second: TCTGGGTATCCTCTGTTATGTCATCTTCACCTCCATTTGGCGGAGTCACCTAGTGCAG
The binding signal of the first is higher: 14000 fluorescence intensity (a.u.) for the first, 8690 fluorescence intensity (a.u.) for the second.

Going from “CTCAATTTTTCGTCGTCATCAGCATCGAATCCGTCCTCCGCGGAGTCACCTAGTGCAG” to “TGCGGGTTGTTTTGATTGACAATTTAGTGTTGGTGTTGTTCGGAGTCACCTAGTGCAG”, the binding signal falls from 11000 fluorescence intensity (a.u.) to 9980 fluorescence intensity (a.u.).
